{"source": "PubChem BioAssay AID1259308 (NCATS, 2017)", "purpose": "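Knock-downs that increase output of a recombinant reporter protein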 (primary screen)", "system": "human HEK293 embryonic kidney cells stably expressing firefly luciferase (HEK-CMV-Luc2-Hygro)", "reagent": "single siRNA against human genes, 0.8 pmol siRNA per well", "time to read-out": "72 h", "read-out": "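Reporter luminescence and viable-cell signal on separate replicate plates, given as percent of non-targeting control and median/MAD z-scores, plus per-cell luciferase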", "reading the numbers": "total luciferase, z-score: higher = more reporter protein produced", "call rule": "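An siRNA counts as active if its total luciferase robust z-score exceeds 3; genes with two or more such siRNAs out of three were retested with fresh siRNAs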", "meaning of the calls": "active = raised luciferase; inactive = no rise", "note": "In all, the deposit lists about 59,000 reagents; below is a random part of them. Of all reagents, about 1,510 (2.6%) were called active. 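Calls use total luciferase alone and ignore viability, so some active siRNAs may act by altering cell number.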 Reagents against one gene are numbered here. Further read-outs or replicates are left out here."}
{"Target gene":"WDR48 (WD repeat domain 48)","reagent":1,"total luciferase, z-score":-0.163,"Call":"inactive"}
{"Target gene":"WDR48 (WD repeat domain 48)","reagent":2,"total luciferase, z-score":0.615,"Call":"inactive"}
{"Target gene":"WDR48 (WD repeat domain 48)","reagent":3,"total luciferase, z-score":-0.106,"Call":"inactive"}
{"Target gene":"NEK1 (NIMA related kinase 1)","reagent":1,"total luciferase, z-score":0.704,"Call":"inactive"}
{"Target gene":"NEK1 (NIMA related kinase 1)","reagent":2,"total luciferase, z-score":0.573,"Call":"inactive"}
{"Target gene":"NEK1 (NIMA related kinase 1)","reagent":3,"total luciferase, z-score":0.479,"Call":"inactive"}
{"Target gene":"CCNA1 (cyclin A1)","reagent":1,"total luciferase, z-score":1.84,"Call":"inactive"}
{"Target gene":"CCNA1 (cyclin A1)","reagent":2,"total luciferase, z-score":-1.59,"Call":"inactive"}
{"Target gene":"CCNA1 (cyclin A1)","reagent":3,"total luciferase, z-score":-1.19,"Call":"inactive"}
{"Target gene":"GSDMA (gasdermin A)","reagent":1,"total luciferase, z-score":0.222,"Call":"inactive"}
{"Target gene":"GSDMA (gasdermin A)","reagent":2,"total luciferase, z-score":2.73,"Call":"inactive"}
{"Target gene":"GSDMA (gasdermin A)","reagent":3,"total luciferase, z-score":-1.89,"Call":"inactive"}
{"Target gene":"C1orf21 (chromosome 1 open reading frame 21)","reagent":1,"total luciferase, z-score":2.71,"Call":"inactive"}
{"Target gene":"C1orf21 (chromosome 1 open reading frame 21)","reagent":2,"total luciferase, z-score":0.0236,"Call":"inactive"}
{"Target gene":"C1orf21 (chromosome 1 open reading frame 21)","reagent":3,"total luciferase, z-score":0.843,"Call":"inactive"}
{"Target gene":"SNX32 (sorting nexin 32)","reagent":1,"total luciferase, z-score":0.743,"Call":"inactive"}
{"Target gene":"SNX32 (sorting nexin 32)","reagent":2,"total luciferase, z-score":0.471,"Call":"inactive"}
{"Target gene":"SNX32 (sorting nexin 32)","reagent":3,"total luciferase, z-score":-0.422,"Call":"inactive"}
{"Target gene":"PRCC (proline rich mitotic checkpoint control factor)","reagent":1,"total luciferase, z-score":0.123,"Call":"inactive"}
{"Target gene":"PRCC (proline rich mitotic checkpoint control factor)","reagent":2,"total luciferase, z-score":-0.83,"Call":"inactive"}
{"Target gene":"PRCC (proline rich mitotic checkpoint control factor)","reagent":3,"total luciferase, z-score":1.07,"Call":"inactive"}
{"Target gene":"INO80D (INO80 complex subunit D)","reagent":1,"total luciferase, z-score":0.102,"Call":"inactive"}
{"Target gene":"INO80D (INO80 complex subunit D)","reagent":2,"total luciferase, z-score":0.00603,"Call":"inactive"}
{"Target gene":"INO80D (INO80 complex subunit D)","reagent":3,"total luciferase, z-score":-1.51,"Call":"inactive"}
{"Target gene":"LSM6","reagent":1,"total luciferase, z-score":-0.0051,"Call":"inactive"}
{"Target gene":"LSM6","reagent":2,"total luciferase, z-score":0.492,"Call":"inactive"}
{"Target gene":"LSM6","reagent":3,"total luciferase, z-score":0.417,"Call":"inactive"}
{"Target gene":"LSM6","reagent":4,"total luciferase, z-score":0.182,"Call":"inactive"}
{"Target gene":"LSM6","reagent":5,"total luciferase, z-score":0.549,"Call":"inactive"}
{"Target gene":"LSM6","reagent":6,"total luciferase, z-score":0.969,"Call":"inactive"}
{"Target gene":"EBI3 (Epstein-Barr virus induced 3)","reagent":1,"total luciferase, z-score":0.146,"Call":"inactive"}
{"Target gene":"EBI3 (Epstein-Barr virus induced 3)","reagent":2,"total luciferase, z-score":-0.839,"Call":"inactive"}
{"Target gene":"EBI3 (Epstein-Barr virus induced 3)","reagent":3,"total luciferase, z-score":-0.92,"Call":"inactive"}
{"Target gene":"ZFP42 (ZFP42 zinc finger protein)","reagent":1,"total luciferase, z-score":-0.121,"Call":"inactive"}
{"Target gene":"ZFP42 (ZFP42 zinc finger protein)","reagent":2,"total luciferase, z-score":-1.53,"Call":"inactive"}
{"Target gene":"ZFP42 (ZFP42 zinc finger protein)","reagent":3,"total luciferase, z-score":1.33,"Call":"inactive"}
{"Target gene":"EXOC3L4 (exocyst complex component 3 like 4)","reagent":1,"total luciferase, z-score":2.66,"Call":"inactive"}
{"Target gene":"EXOC3L4 (exocyst complex component 3 like 4)","reagent":2,"total luciferase, z-score":1.42,"Call":"inactive"}
{"Target gene":"EXOC3L4 (exocyst complex component 3 like 4)","reagent":3,"total luciferase, z-score":0.802,"Call":"inactive"}
{"Target gene":"SLC66A2","reagent":1,"total luciferase, z-score":1.42,"Call":"inactive"}
{"Target gene":"SLC66A2","reagent":2,"total luciferase, z-score":-1.67,"Call":"inactive"}
{"Target gene":"SLC66A2","reagent":3,"total luciferase, z-score":1.87,"Call":"inactive"}

Targets listed so far whose target name begins with E or e (6):
{"Target gene":"EBI3 (Epstein-Barr virus induced 3)","reagent":1,"total luciferase, z-score":0.146,"Call":"inactive"}
{"Target gene":"EBI3 (Epstein-Barr virus induced 3)","reagent":2,"total luciferase, z-score":-0.839,"Call":"inactive"}
{"Target gene":"EBI3 (Epstein-Barr virus induced 3)","reagent":3,"total luciferase, z-score":-0.92,"Call":"inactive"}
{"Target gene":"EXOC3L4 (exocyst complex component 3 like 4)","reagent":1,"total luciferase, z-score":2.66,"Call":"inactive"}
{"Target gene":"EXOC3L4 (exocyst complex component 3 like 4)","reagent":2,"total luciferase, z-score":1.42,"Call":"inactive"}
{"Target gene":"EXOC3L4 (exocyst complex component 3 like 4)","reagent":3,"total luciferase, z-score":0.802,"Call":"inactive"}
